Where “and” joins values, the source holds several entries; their conditions need not be identical. Equal entries are not always repeated.
Tested on: wild-type and peptidase knockout T. cruzi epimastigotes and amastigotes
Test: LC-MS/MS analysis of intracellular AN15368 and AN14667 (uptake and conversion)
Assay type: cell-based, Trypanosoma cruzi
Description: The cells were then pelleted and resuspended in 100 μL of PBS. The cell suspension was mixed with 200 μl of acetonitrile and centrifuged at 735 gfor 10 minutes at room temperature. After extraction, the supernatant was further diluted with methanol:water 30:70 (v/v) containing 0.4 nM internal standard (IS) AN14817 to a concentration within the calibration range. Each sample was diluted in triplicate to provide technical replicates and the diluted sample (10 μL) was injected for subsequent LC-MS/MS analysis.
LC-MS/MS analysis was performed on a Waters ACQUITY I-Class UPLC system coupled to a Xevo TQ-S triple quadrupole mass spectrometer. An ACQUITY UPLC BEH C18 column (130 Å, 1.7 μm, 2.1 mm x 50 mm) was used for chromatographic separation, and the column temperature was 40 °C. The mobile phase consisted of water (A) and methanol (B), both containing 0.1% (v/v) formic acid. The following gradient elution was performed at a flow rate of 0.4 mL/min: 0 – 0.5 min, 30% B; 0.5 – 3 min, 30 – 95% B; 3 – 4 min, 95% B; 4 – 4.1 min, 95 – 30% B; and 4.1 – 5 min, 30% B. The MS ionization was carried out in the positive electrospray ionization (ESI) mode with following conditions: capillary voltage = 1.50 kV; desolvation temperature = 500 °C; desolvation gas flow = 1000 L/h; and nebulizer gas pressure = 7.0 bar. […] Data were processed using TargetLynx v4.1 software (Waters).

SMILES | Intracellular level of compound (Fig 2.d) (Amastigotes, TcCBP KO) | Intracellular level of compound (Fig 2.d) (Amastigotes, WT) | Intracellular level of compound (Fig 2.d) (Epimastigotes, TcCBP KO) | Intracellular level of compound (Fig 2.d) (Epimastigotes, WT)
Cc1c(C(=O)N[C@H](C(=O)O)C(C)C)ccc2c1B(O)OC2 [AN14667] | 0.1109 and 0.09984 and 0.1014 | 5.454 and 5.25 and 5.388 | 0.009784 and 0.009803 and 0.009218 | 0.2824 and 0.2807 and 0.2809
Cc1c(C(=O)N[C@H](C(=O)OCC2CCOCC2)C(C)C)ccc2c1B(O)OC2 [AN15368] | 1.4368 and 1.4432 and 1.3408 | 0.696 and 0.666 and 0.714 | 0.4189 and 0.3981 and 0.377 | 0.1245 and 0.1244 and 0.1308

Source: PMC9519446, “Discovery of an Orally Active Benzoxaborole Prodrug Effective in the Treatment of Chagas Disease in Non-human Primates” (Nature microbiology, 2022)
